This passage reports binding signal results from article PMC7819943, “Rice protein-binding microarrays: a tool to detect cis-acting elements near promoter regions in rice”.

Protein sequences, listed by entry. Tags and fused reporters are not part of them.
UniProt Q0JBA9, entry or part of it: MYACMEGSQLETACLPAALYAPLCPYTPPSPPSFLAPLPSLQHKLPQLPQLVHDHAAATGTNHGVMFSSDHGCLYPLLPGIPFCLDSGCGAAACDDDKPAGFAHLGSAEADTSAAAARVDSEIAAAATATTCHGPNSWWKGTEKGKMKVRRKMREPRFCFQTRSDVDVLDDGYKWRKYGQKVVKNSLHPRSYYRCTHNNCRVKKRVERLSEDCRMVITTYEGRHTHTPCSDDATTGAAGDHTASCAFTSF

Some of the results follow.

The experiment addresses OsWRKY34 (Oryza sativa, UniProt Q0JBA9 1-250). The experiment is described as follows: protein-binding microarray (RPBM); PBS, 2% BSA, 51.3 ng/ul salmon testes DNA, 50 uM zinc acetate, 200 nM TF, 25 C, 1 h; high values mean tight binding. The note with it: protein: recombinant; tags: N-terminal polyhistidine and DsRed monomer fusion (pET32a); label: CyDye5-dUTP incorporated in the synthesized complementary strand; 3' TTTTT single-stranded linker to array surface; dsDNA, one strand shown. In outline:
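Binding signal here means per-feature fluorescence intensity in arbitrary units. The values were read on an Axon 4000B scanner after a custom Agilent array, double-stranded by primer extension with Cy5-dUTP, was incubated with 200 nM protein at 25 °C for 1 h in PBS with 2% BSA, salmon testes DNA and 50 µM zinc acetate, then washed. The proteins were transcription factors with an N-terminal polyhistidine tag and DsRed, expressed in E. coli BL21-CodonPlus and purified on Ni–NTA.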
On to “TGTACTTTTTCCTTTTGAAGGGGTGGACTTTTCGTACTCGCGGAGTCACCTAGTGCAG”, for which the binding signal is 8140 fluorescence intensity (a.u.).
Turning to “TCACTCATCCACACACAGCTCTCTAGCCTCTTGCCACATACGGAGTCACCTAGTGCAG”, the binding signal was 9600 fluorescence intensity (a.u.).
To “TTTCTCACATTTTCCATCAGTTGAATACTCCCACCCTGAACGGAGTCACCTAGTGCAG” belongs 9630 fluorescence intensity (a.u.).
The figure for “TATGATCCCTGATCTCGTATCGGCATGGTCCCACGATTCCCGGAGTCACCTAGTGCAG” is 9330 fluorescence intensity (a.u.); for “CCCCACTCCCAACCCATCTCCACCGTCCGTCCGATGCCTCCGGAGTCACCTAGTGCAG” it is 9600 fluorescence intensity (a.u.).
As for “GTTTCCGATGATAACATCACACCACCATTTTCCGATGATACGGAGTCACCTAGTGCAG”, the binding signal was 8980 fluorescence intensity (a.u.).
In the case of “CGACTAGCGTACGTCTCATCTCATCGGATTGTCCTGTTTGCGGAGTCACCTAGTGCAG”, the binding signal is 8520 fluorescence intensity (a.u.).
The figure for “ACTTTGGTATCATCATGTTGCCATATTTCGACTTCTAGCACGGAGTCACCTAGTGCAG” is 8110 fluorescence intensity (a.u.).
The figure for “TTCTATTGGAAACGTTTAGCTATTTGGTTATCATTATTGTCGGAGTCACCTAGTGCAG” is 10600 fluorescence intensity (a.u.); for “TTTTCGTCCGTATTATTCTGTTTCCGGTTTTCCAATATTTCGGAGTCACCTAGTGCAG” it is 11300 fluorescence intensity (a.u.); for “TCCTCTCCTCGCCACGCGCGCGCGCCAACGCCACCACCACCGGAGTCACCTAGTGCAG” it is 8610 fluorescence intensity (a.u.).
To “TTTGGCTTTTGTCACATGAATATTATTCACTGCCTCCGCGCGGAGTCACCTAGTGCAG” belongs 8990 fluorescence intensity (a.u.); to “TACTGCGTTTGCTTGTTCGATCCATCCATCCATCCATTTCCGGAGTCACCTAGTGCAG”, 9230 fluorescence intensity (a.u.); to “CTGGTGACCTGTCGATCGAGTCCGCTGTTCTTGGTCAATCCGGAGTCACCTAGTGCAG”, 10900 fluorescence intensity (a.u.).
As to “TGTTTTATTGTTTTGTTTTTATATTTTGTTTTTAGTGTCACGGAGTCACCTAGTGCAG”, the binding signal is 8750 fluorescence intensity (a.u.).
For the sequence “CTTCGCGTTGATTTTTTTTTCAGTGGCTGTATTTATTCGTCGGAGTCACCTAGTGCAG”, the binding signal is 9810 fluorescence intensity (a.u.).
The figure for “TCCGCGCTCCGCCTCTTCGCCGCCATGCCCCGCCGCAACGCGGAGTCACCTAGTGCAG” is 9570 fluorescence intensity (a.u.); for “TTGGCCGTTTTCATGACCCATTCTGTAACTTTTATCTGACCGGAGTCACCTAGTGCAG” it is 10600 fluorescence intensity (a.u.); for “CGTCCGAAACCTTGGCCAACCCCTAAGTAAATCTGTTATTCGGAGTCACCTAGTGCAG” it is 8090 fluorescence intensity (a.u.).
For the sequence “GTTTCGGGAAGGGGAGGCAGAACGCAAGAAAGAAGGAAATCGGAGTCACCTAGTGCAG”, the binding signal was 9510 fluorescence intensity (a.u.).
Take “CTCCATACTGCACCGTTTTTTGTAAATTTTTTTTGCTGCTCGGAGTCACCTAGTGCAG”: the binding signal is 8210 fluorescence intensity (a.u.).
Consider “GGATTTCAGGACGCACTTCTCCGGCCAGAGGAGCCTCATCCGGAGTCACCTAGTGCAG”, for which the binding signal was 9370 fluorescence intensity (a.u.).
On to “GCAGTACACTGATACGATACAATCGTTGACTGTTTCAGGACGGAGTCACCTAGTGCAG”, for which the binding signal is 9230 fluorescence intensity (a.u.).
The figure for “CATTTGTCTTGCAGTTCTTGCGGCTGGGCTCAAAGTTTTACGGAGTCACCTAGTGCAG” is 8310 fluorescence intensity (a.u.); for “ACGCATCCTCCTCGCCGGCCTTCTCCGCGCAGCGTGCTTCCGGAGTCACCTAGTGCAG” it is 8050 fluorescence intensity (a.u.).
Take “TCTGCTGATCCTGTCGTCTTCCTCGTACCCTCTCTGCTGCCGGAGTCACCTAGTGCAG”: the binding signal is 10400 fluorescence intensity (a.u.).
Turning to “CAAACACACTGCTGACTGCTGATGTCCTTCTGTTGCATTGCGGAGTCACCTAGTGCAG”, the binding signal was 9420 fluorescence intensity (a.u.).
On to “TAGCTCCAGTCCCATATACACCACAACGTTCACATCGTCGCGGAGTCACCTAGTGCAG”, for which the binding signal is 8140 fluorescence intensity (a.u.).
For “TGTCCAGTCGTCACCCTGCTGCTTCCCTGCCACTGCCCTACGGAGTCACCTAGTGCAG”, the binding signal was 17000 fluorescence intensity (a.u.).
The figure for “ATCGGCTTTGACTCTGGCTTTGAATCCGGCCCACGGCCTTCGGAGTCACCTAGTGCAG” is 9460 fluorescence intensity (a.u.).
As to “GGCCGCCACCCCACCAGACGCATCGATCCCCGTGTCCAGACGGAGTCACCTAGTGCAG”, the binding signal was 8490 fluorescence intensity (a.u.).
As for “ATATATATATATATATATGTGTGTATATATATATATATATCGGAGTCACCTAGTGCAG”, the binding signal is 8920 fluorescence intensity (a.u.).
With “TACTTCTTCCATCTCAATTCCTCTTCTATTTTTCTGAGATCGGAGTCACCTAGTGCAG”, the binding signal was 9490 fluorescence intensity (a.u.).
In the case of “CCATTTGTTTCACTTTACACCACACCTCATCTTCTCCAAGCGGAGTCACCTAGTGCAG”, the binding signal is 9850 fluorescence intensity (a.u.).
Consider “TCTTCTTTTTCCTTCTCATCGGTCCTTATATATACATCAGCGGAGTCACCTAGTGCAG”, for which the binding signal is 8780 fluorescence intensity (a.u.).
The figure for “CTACCGCCACCATCCACTGCCATTTGCCGGTCGCTGCCATCGGAGTCACCTAGTGCAG” is 9040 fluorescence intensity (a.u.).
Turning to “GGCCACCTGCTACACTGCTAACTTCAAACGGCCGCCGAATCGGAGTCACCTAGTGCAG”, the binding signal was 8170 fluorescence intensity (a.u.).
The figure for “CATAACCCTAGCCGCCGCCGCCCGTTCTCCCTCGTCCTCCCGGAGTCACCTAGTGCAG” is 9860 fluorescence intensity (a.u.); for “AATGCACAGCTAGTACTACTCGCGAGTCACCATCCATCTCCGGAGTCACCTAGTGCAG” it is 8340 fluorescence intensity (a.u.); for “TCTCTCTCTATACTCCACTCATGTGCTGTACTACACTGACCGGAGTCACCTAGTGCAG” it is 11300 fluorescence intensity (a.u.).
Regarding “CTAGATTCGTTTTTTATGGGGTGGAGGGAGTACATGCCTTCGGAGTCACCTAGTGCAG”, the binding signal is 12800 fluorescence intensity (a.u.).
To “AACGCACTACCGTGCACTATATAGTCACATCCATTAAAACCGGAGTCACCTAGTGCAG” belongs 8530 fluorescence intensity (a.u.); to “TTTTTTTCTCGTCTTCAAAATATACAGTGCTGTTTTTTATCGGAGTCACCTAGTGCAG”, 8880 fluorescence intensity (a.u.).
Turning to “AATTGTTTATTTTTCTTTTTTTTTCTTTGCCTATTTTCCACGGAGTCACCTAGTGCAG”, the binding signal was 10200 fluorescence intensity (a.u.).
Regarding “ATCCTCACTCGCCGCCTTCTCTCCTCTCGCGCCGTTTCGCCGGAGTCACCTAGTGCAG”, the binding signal is 9420 fluorescence intensity (a.u.).
In the case of “AAACTATGTGATTAATTACCGAATTTCATTGTGCCGCATTCGGAGTCACCTAGTGCAG”, the binding signal is 8860 fluorescence intensity (a.u.).
As to “CCTCCGTTTTTAAATATTTGATGCCGTTGACTTTTTAAAACGGAGTCACCTAGTGCAG”, the binding signal was 19900 fluorescence intensity (a.u.).
To “CGTCCTCAACCGTGACGCCGCCGCGCGCCTCACCATCTCGCGGAGTCACCTAGTGCAG” belongs 9670 fluorescence intensity (a.u.); to “GTGCTAGCTTATCTAACATTCATGCTTTGCTTCTCCCTTACGGAGTCACCTAGTGCAG”, 8590 fluorescence intensity (a.u.).
To “TTGGAGTCGGCGCCCCGCGCGTTGCCTCATCCGGTCAACGCGGAGTCACCTAGTGCAG” belongs 9440 fluorescence intensity (a.u.); to “GAGGAGGAGTCTTGACTCTTGCGAGCGTGTTCGTTCTTGGCGGAGTCACCTAGTGCAG”, 9300 fluorescence intensity (a.u.).
For the sequence “TCCTCAAATTGCTCTATTTTTTCCTGCGGCCCAATCAAACCGGAGTCACCTAGTGCAG”, the binding signal was 10100 fluorescence intensity (a.u.).
To “GACTCCGCCGCCGCCGCCGCCGCCGCCGCCTCCGGCTCCGCGGAGTCACCTAGTGCAG” belongs 8630 fluorescence intensity (a.u.); to “CTTCCCTTCGCCATGTCCGTCTCCGCCGCCGTCGCCGCCGCGGAGTCACCTAGTGCAG”, 8480 fluorescence intensity (a.u.).
